Here are results for one substance from article PMC8457056, “Remodeling of the Fibrillation Pathway of α‐Synuclein by Interaction with Antimicrobial Peptide LL‐III” (Chemistry (Weinheim an Der Bergstrasse, Germany), 2021).

The data set has as its system α‐Syn. Nature of the data set: circular dichroism spectroscopy of the LL-III/α-Syn mixture. In kind it is biochemical, human. To be noted: 300 μM LL-III, 30 μM α-Syn, 20 mM sodium acetate, pH 5.0, 25 °C.

In the case of NH2-VNWKKIL GKIIKVVK -CONH2 [LL‐III], the “conformation of the LL-III/α-Syn mixture after 10 days (CD)” value (10 days) is “showed only features of a random conformation”. Also, where the note is “day 0”, the “conformational change on mixing LL-III and α-Syn (CD)” value is “no conformational changes were observed”.
